How the values were obtained:
Type in all cases: in vivo
lactating dairy cattle = assay: Combined analysis of Wisconsin and New York Studies; conditions: final week
Protocol: The instant example provides the combined analysis of data from the two studies (Wisconsin Study and New York Study). The two studies were combined statistically to explore effects on milk production efficiency and other variables associated with efficiency. By effectively doubling pen numbers an increase in power of the analysis was provided. Analysis of these combined datasets was performed in various ways, with the inclusion of either weekly milk yield averages or sample day milk yields to calculate milk component yields, component corrected yields, and feed efficiency. Further, the combined dataset was analyzed using data collected from all experimental weeks as well as the exclusion of data from the first three weeks of experimental treatment feeding. This was done to exclude any shifts in response variables while the rumen environment was adapting to the treatment provided. Materials & Methods: All data from both experimental locations were combined and statistically analyzed as a longitudinal experiment design through SAS version 9.4 (SAS Institute Inc., Cary, N.C.). Experimental response variables, excluding body condition score (BCS), were analyzed using PROC MIXED and […] statements to compare treatment means using the following model: γijklm=μ+[…] Where γijklm=an individual observation of the response variable analyzed, Ti=the i^th dietary treatment, Wj=the j^th experimental week, TWij=the interaction of the i^th treatment with the j^th experimental week, Lk=the k^th experimental location, Pl(i*k)=the 1th pen within the i^th treatment and k^th experimental location, WPjl(i*k)=the interaction of the j^th experimental week with the 1th pen within the i^th treatment and k^th experimental location, Cm(l*i*k)=the m^th cow within the 1th pen, the i^th treatment and k^th experimental location, BXmlik=the covariate observation obtained after three weeks of feeding a common diet to all treatment groups, and ∈ijklmn=the random error of the m^th cow within the 1th pen, the i^th treatment and the k^th location. […]

lactating Holstein cows = assay: Wisconsin Study: dietary monensin fed to lactating cows for 9 weeks
Protocol: Methods: […] All cows received 11 g/ton Rumensin for a 5-week covariate period after which pens received 1 of 4 dietary treatments (n=3) formulated to provide 0 g/ton (Control, “CON”), 11 g/ton (R11), 14.5 g/ton (R14.5), or 18 g/ton (R18) of Rumensin for 9 weeks. Basal diet was 54% forage and 27% Neutral Detergent Fiber (NDF), 29% starch, and 2.3% Rumen Unsaturated Fatty Acid Load (RUFAL). The pen was the experimental unit, and data were analyzed using the Fit Model Procedure of JMP with treatment as a fixed effect and pen as a random effect. LS-means were determined and contrasts of CON vs. R11, CON vs. R14.5, CON vs. R18, and linear and quadratic effects were tested.

lactating dairy cows = assay: New York/Cornell Study: dietary monensin fed to lactating dairy cows
Excerpt: Lactating dairy cows were used for the instant example. Methods: One-hundred ninety-two lactating cows (120±50 DIM) were randomly assigned to 12 pens each including 16 cows.

## CC[C@@]1([C@@H]2O[C@@H]([C@H]3O[C@@](O)(CO)[C@H](C)C[C@@H]3C)C[C@@H]2C)CC[C@H]([C@]2(C)CC[C@]3(C[C@H](O)[C@@H](C)[C@@H]([C@@H](C)[C@@H](OC)[C@H](C)C(=O)O)O3)O2)O1 [monensin]
Lactating dairy cattle; 11 g/ton
  Final BCS: 2.93
Lactating dairy cattle; 14.5 g/ton
  Final BCS: 2.96
Lactating dairy cattle; 18 g/ton
  Final BCS: 2.87
Lactating Holstein cows; R11, 11 g/ton
  Weight Gain: 0.90 lb/d
Lactating Holstein cows; R14.5, 14.5 g/ton
  Weight Gain: 0.98 lb/d
Lactating Holstein cows; R18, 18 g/ton
  Weight Gain: 1.17 lb/d
Lactating dairy cows; R11, 11 g/ton
  Weight Gain: 0.60 lb/d
Lactating dairy cows; R14.5, 14.5 g/ton
  Weight Gain: 0.35 lb/d
Lactating dairy cows; R18, 18 g/ton
  Weight Gain: 0.97 lb/d

— patent publication US20230255927A1 (ELANCO TIERGESUNDHEIT AG, priority 2022, published 2023)
